According to US7211270B2, “Anthranilamide insecticides” (E. I. du Pont de Nemours and Company, priority 2002, dated 2007):
Some results were stated once for a whole list of compounds, not compound by compound.

Tests used:
[1] = test system: fall armyworm (Spodoptera frugiperda); assay: Test B: control of fall armyworm on corn (maize) plant, foliar spray; type: in vivo; details: sprayed at 50 ppm; 1-day-old larvae on corn (maize); visually rated as in Test A; three replicates
[2] = test system: diamondback moth (Plutella xylostella); assay: Test A: control of diamondback moth on radish plant, foliar spray; type: in vivo; details: sprayed at 50 ppm; neonate larvae on radish; visually assessed after 6 days, 25° C., 70% relative humidity; three replicates

How did the “plant protection (feeding damage), excellent levels” value [1] turn out when `Cc1cc(Cl)cc(C(=O)NC(C)CSC[Si](C)(C)C)c1NC(=O)c1cc(Br)nn1-c1ncccc1Cl` (centres unmarked) [Compound 1, 3-Bromo-N-[4-chloro-2-methyl-6-[[[1-methyl-2-[[(trimethylsilyl)methyl]thio]ethyl]amino]carbonyl]phenyl]-1-(3-chloro-2-pyridinyl)-1H-pyrazole-5-carboxamide] was run?
The value was at most 20%.

What about the “plant protection (feeding damage), very good to excellent levels” value [2] of the same molecule?
The value was at most 20%.
